Test results taken from article PMC10121471.
Results are given in words; binding and its absence hold for the method and conditions named. Binding seen in cells or lysates may run through a third protein. Here binding means that the protein was enriched with, or labelled near, the bait; the list need not be complete.

The chains behind the UniProt entries cited, without tags or fusion partners.
UniProt Q15910: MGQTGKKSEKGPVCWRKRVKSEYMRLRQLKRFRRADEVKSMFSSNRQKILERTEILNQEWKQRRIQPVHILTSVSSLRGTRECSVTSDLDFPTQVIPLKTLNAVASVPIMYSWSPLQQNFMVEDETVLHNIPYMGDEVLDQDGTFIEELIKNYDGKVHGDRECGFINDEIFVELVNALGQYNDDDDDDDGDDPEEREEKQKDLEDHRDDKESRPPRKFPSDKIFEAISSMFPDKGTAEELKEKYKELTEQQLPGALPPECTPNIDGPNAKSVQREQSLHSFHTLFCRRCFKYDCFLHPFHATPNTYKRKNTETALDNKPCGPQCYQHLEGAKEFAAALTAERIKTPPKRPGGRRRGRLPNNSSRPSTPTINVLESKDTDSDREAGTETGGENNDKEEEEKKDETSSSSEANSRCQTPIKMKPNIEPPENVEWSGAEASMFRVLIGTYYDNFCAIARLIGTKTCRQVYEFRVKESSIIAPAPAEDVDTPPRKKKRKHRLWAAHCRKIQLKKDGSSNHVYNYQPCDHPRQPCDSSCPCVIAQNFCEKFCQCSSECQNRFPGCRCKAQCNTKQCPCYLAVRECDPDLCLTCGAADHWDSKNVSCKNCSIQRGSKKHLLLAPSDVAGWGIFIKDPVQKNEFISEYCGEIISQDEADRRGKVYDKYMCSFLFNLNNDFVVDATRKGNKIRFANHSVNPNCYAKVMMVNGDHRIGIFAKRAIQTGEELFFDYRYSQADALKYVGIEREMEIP
UniProt Q5T4S7: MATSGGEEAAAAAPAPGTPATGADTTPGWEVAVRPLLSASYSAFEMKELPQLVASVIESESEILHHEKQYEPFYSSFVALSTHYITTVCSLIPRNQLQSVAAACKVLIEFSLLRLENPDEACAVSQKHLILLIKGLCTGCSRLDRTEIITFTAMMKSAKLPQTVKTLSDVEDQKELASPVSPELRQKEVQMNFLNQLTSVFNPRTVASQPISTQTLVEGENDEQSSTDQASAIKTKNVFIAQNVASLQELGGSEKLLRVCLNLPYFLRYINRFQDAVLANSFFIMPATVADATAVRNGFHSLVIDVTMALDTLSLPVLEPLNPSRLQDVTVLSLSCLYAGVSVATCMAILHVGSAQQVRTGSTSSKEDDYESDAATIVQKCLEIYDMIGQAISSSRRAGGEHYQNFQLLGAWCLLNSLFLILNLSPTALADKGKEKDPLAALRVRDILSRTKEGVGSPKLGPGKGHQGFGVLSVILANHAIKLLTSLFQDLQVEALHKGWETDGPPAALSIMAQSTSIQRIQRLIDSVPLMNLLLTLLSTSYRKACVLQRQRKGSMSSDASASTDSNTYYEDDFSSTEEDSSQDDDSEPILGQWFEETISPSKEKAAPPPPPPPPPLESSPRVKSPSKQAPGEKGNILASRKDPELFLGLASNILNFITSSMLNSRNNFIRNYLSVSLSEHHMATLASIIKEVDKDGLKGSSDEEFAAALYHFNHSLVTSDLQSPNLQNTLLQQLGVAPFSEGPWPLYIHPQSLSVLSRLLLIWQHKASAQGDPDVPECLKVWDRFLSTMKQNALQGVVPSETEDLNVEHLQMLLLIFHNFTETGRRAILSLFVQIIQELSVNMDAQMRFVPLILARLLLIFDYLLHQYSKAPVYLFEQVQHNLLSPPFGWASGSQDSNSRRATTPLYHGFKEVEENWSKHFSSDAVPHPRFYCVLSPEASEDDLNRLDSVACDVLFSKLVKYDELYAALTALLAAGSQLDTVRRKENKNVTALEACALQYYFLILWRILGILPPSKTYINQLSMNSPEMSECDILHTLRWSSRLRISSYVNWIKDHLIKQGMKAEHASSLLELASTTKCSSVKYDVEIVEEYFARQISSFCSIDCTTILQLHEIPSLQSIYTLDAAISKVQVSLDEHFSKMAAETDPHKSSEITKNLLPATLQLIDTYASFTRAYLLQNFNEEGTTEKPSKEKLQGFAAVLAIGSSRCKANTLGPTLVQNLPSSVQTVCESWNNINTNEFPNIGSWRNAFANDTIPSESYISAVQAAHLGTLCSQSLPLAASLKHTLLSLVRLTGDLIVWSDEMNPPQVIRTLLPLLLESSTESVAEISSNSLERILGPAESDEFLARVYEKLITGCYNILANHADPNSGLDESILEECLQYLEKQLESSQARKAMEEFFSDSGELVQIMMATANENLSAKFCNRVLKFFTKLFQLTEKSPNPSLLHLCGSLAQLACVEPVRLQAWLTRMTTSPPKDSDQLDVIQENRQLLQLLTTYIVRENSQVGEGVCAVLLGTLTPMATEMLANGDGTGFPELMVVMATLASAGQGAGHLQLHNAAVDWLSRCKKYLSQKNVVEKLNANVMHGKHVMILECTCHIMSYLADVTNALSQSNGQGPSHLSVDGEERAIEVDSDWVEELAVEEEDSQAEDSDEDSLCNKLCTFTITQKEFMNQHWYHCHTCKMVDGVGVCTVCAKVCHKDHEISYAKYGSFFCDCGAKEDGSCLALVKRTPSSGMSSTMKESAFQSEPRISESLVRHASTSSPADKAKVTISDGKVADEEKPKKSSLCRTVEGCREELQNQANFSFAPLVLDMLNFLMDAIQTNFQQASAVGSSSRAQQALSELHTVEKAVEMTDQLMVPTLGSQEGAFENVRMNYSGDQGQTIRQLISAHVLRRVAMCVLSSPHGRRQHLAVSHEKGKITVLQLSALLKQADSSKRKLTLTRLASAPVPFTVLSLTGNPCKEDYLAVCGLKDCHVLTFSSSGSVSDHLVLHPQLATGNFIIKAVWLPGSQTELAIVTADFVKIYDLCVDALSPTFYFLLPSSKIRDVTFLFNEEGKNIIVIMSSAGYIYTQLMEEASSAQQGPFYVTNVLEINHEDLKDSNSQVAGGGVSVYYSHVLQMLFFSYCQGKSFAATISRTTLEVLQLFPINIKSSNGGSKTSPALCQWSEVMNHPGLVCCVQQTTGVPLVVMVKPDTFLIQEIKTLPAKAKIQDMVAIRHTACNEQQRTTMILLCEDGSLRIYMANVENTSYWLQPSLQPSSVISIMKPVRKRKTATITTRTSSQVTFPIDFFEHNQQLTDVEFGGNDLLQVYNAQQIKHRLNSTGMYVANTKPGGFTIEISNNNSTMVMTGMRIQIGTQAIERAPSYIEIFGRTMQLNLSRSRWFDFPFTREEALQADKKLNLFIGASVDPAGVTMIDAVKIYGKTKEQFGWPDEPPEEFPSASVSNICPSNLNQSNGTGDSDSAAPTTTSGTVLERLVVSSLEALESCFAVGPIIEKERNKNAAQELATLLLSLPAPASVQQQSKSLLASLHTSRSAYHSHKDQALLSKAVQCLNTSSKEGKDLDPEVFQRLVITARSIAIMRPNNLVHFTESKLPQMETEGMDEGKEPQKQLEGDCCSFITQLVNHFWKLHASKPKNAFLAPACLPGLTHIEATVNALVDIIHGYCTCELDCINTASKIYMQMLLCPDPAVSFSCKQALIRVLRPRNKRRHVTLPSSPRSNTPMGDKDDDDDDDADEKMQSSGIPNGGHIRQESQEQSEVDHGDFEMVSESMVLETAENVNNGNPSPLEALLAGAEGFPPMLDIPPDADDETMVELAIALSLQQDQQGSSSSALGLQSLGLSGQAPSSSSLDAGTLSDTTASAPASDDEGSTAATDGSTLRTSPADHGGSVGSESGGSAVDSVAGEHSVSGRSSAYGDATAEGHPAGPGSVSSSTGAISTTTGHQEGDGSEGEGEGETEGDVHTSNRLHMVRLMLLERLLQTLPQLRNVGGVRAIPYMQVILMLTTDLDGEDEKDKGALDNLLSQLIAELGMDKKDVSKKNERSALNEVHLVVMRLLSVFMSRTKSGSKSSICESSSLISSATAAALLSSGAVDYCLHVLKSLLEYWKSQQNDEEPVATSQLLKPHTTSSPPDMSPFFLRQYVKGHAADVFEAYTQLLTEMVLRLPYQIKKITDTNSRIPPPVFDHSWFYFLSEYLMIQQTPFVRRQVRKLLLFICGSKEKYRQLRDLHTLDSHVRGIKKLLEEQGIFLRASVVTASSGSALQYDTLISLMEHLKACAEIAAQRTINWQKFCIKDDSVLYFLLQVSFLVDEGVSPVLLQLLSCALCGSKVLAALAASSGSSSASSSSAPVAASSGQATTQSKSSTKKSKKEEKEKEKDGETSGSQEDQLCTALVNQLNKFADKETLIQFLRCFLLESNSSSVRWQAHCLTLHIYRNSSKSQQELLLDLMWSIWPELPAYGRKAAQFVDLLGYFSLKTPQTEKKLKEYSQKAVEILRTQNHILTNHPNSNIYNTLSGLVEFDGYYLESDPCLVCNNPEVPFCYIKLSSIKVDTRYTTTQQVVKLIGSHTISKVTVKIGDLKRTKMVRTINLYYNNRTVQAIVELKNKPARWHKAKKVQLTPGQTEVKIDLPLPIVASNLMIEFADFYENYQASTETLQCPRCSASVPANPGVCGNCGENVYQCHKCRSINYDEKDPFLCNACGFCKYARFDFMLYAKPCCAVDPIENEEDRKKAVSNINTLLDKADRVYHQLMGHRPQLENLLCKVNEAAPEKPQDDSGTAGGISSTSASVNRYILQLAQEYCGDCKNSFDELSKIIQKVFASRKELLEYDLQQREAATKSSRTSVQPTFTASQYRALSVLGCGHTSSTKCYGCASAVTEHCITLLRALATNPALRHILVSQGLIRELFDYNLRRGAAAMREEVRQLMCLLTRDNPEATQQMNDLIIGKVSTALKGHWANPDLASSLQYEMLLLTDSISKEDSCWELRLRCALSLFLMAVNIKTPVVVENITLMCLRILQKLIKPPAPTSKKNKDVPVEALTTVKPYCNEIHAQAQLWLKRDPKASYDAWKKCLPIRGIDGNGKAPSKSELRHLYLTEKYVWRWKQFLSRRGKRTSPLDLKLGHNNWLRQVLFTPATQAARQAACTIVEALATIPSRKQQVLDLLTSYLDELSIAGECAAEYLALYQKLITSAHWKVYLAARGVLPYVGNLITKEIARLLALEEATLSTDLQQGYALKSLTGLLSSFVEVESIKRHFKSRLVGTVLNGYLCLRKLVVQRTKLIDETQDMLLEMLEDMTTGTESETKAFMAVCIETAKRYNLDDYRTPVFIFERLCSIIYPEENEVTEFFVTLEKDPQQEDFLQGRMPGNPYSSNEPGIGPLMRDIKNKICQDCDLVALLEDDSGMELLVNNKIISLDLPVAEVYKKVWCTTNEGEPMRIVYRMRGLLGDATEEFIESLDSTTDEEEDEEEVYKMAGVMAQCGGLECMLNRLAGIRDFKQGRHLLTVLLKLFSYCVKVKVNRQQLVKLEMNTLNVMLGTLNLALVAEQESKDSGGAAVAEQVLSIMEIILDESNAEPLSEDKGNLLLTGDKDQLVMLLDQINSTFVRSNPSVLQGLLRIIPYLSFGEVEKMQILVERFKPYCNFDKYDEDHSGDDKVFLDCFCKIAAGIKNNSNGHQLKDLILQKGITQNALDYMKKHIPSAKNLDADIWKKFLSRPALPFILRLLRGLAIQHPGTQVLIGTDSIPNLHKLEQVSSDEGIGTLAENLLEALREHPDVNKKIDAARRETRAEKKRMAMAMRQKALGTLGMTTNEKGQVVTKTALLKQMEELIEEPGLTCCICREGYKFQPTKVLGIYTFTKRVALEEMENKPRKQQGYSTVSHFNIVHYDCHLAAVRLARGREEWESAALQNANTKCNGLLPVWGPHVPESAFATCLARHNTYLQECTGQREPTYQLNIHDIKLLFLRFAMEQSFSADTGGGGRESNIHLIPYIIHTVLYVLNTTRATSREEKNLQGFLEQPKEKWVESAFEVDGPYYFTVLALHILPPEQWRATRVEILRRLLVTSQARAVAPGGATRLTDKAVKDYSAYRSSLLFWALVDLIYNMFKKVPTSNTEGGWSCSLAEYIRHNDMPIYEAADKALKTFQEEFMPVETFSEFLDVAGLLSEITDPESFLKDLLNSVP

Molecular target: EZH2 (enhancer of zeste homolog 2), endogenous in human melanoma cell lines (human (endogenous in A375, 28:B4:F3, LM-MEL45, IGR37)) (UniProt Q15910)
Test: affinity purification with mass spectrometry; EZH2 co-immunoprecipitates from lysates of melanoma cell lines analysed by LC-MS; n = 3 biological replicates

- binding: binds
Substance: UBR4, endogenous in human melanoma cell lines (from UniProt Q5T4S7 1-5183) (enzyme)
